Binding data for one molecule are collected here from patent US20070167369A1, “Novel use of isolated polypeptide comprising four FAS-1 domains, EM1 domain and RGD motif” (KYUNGPOOK NATIONAL UNIVERSITY INDUSTRY-ACADEMIC COOPERATION …, priority 2004, published 2007).

Sequences of proteins named here, by UniProt entry; tags and fusion partners are left off. A change or cut given only in a name is not applied to a line headed by its entry.
UniProt P06756: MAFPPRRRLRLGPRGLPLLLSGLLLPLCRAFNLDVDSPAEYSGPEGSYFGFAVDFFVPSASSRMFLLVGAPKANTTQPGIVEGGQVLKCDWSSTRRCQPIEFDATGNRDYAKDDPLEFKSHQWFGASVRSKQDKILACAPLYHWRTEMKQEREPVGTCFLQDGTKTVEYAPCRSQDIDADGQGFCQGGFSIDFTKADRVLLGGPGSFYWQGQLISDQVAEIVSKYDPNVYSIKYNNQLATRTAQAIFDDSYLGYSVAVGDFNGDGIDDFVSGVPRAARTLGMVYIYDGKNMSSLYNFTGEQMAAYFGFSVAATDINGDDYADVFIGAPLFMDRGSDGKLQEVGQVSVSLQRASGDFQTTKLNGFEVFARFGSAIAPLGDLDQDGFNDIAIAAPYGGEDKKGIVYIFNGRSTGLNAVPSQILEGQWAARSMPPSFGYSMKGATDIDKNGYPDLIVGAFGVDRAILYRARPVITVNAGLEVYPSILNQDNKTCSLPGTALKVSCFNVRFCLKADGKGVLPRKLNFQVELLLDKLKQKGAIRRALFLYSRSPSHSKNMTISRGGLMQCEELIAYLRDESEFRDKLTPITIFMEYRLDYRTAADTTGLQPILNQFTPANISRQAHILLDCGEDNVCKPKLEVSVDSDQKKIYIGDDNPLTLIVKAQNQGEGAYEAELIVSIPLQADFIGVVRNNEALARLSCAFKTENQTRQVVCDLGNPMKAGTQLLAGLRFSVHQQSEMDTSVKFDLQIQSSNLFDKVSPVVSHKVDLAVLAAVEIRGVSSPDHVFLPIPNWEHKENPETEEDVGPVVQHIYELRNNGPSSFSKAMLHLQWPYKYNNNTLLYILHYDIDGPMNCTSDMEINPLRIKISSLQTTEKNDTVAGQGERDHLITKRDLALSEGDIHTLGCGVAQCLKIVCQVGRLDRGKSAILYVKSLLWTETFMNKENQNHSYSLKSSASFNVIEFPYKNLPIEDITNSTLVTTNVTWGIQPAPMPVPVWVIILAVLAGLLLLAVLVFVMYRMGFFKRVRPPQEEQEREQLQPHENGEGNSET
UniProt P05106: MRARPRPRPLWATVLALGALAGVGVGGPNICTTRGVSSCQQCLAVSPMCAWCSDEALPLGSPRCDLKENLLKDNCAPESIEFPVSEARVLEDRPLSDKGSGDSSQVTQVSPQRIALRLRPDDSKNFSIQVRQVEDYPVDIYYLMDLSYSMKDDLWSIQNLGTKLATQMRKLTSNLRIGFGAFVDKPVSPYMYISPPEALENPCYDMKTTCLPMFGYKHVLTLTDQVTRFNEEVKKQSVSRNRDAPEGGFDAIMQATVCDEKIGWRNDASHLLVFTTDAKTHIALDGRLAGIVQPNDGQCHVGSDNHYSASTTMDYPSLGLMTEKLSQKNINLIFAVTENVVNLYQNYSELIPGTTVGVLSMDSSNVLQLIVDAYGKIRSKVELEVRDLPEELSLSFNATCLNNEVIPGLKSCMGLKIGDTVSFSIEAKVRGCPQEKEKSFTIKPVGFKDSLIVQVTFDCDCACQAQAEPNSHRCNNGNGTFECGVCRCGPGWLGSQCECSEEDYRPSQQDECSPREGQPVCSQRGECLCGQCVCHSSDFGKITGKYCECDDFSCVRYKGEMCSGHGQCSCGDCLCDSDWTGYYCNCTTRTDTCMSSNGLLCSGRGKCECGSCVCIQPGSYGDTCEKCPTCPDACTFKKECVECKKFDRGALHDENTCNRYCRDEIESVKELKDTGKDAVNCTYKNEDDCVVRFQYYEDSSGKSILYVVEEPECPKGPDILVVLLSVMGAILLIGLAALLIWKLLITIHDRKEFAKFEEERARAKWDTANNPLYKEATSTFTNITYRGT

This assay addresses αvβ3 integrin (human) (UniProt P06756+P05106). In words: biotin-βig-h3 incubated with HUVECs, cell lysate blotted with streptavidin-HRP.

These are yes or no findings as the source states them, for the method shown. Some results given as binding are weak or reduced against the parent protein; the word gives no strength.

B1: biotinylated βig-h3 (ligand)
chain: WYQRKICGKSTVISYECCPGYEKVPGEKGCPAALPLSNLYETLGVVGSTTTQLYTDRTEKLRPEMEGPGSFTIFAPSNEAWASLPAEVLDSLVSNVNIELLNALRYHMVGRRVLTDELKHGMTLTSMYQNSNIQIHHYPNGIVTVNCARLLKADHHATNGVVHLIDKVISTITNNIQQIIEIEDTFETLRAAVAASGLNTMLEGNGQYTLLAPTNEAFEKIPSETLNRILGDPEALRDLLNNHILKSAMCAEAIVAGLSVETLEGTTLEVGCSGDMLTINGKAIISNKDILATNGVIHYIDELLIPDSAKTLFELAAESDVSTAIDLFRQAGLGNHLSGSERLTLLAPLNSVFKDGTPPIDAHTRNLLRNHIIKDQLASKYLYHGQTLETLGGKKLRVFVYRNSLCIENSCIAAHDKRGRYGTLFTMDRVLTPPMGTVMDVLKGDNRFSMLVAAIQSAGLTETLNREGVYTVFAPTNEAFRALPPRERSRLLGDAKELANILKYHIGDEILVSGGIGALVRLKSLQGDKLEVSLKNNVVSVNKEPVAEPDIMATNGVVHVITNVLQPPANRPQERGDELADSALEI
modifications: biotinylated (sites not given)
For B1, the binding entry was “binds”.
